Laboratory results published in PMC7229842, “Molecular basis of the multifaceted functions of human leucyl-tRNA synthetase in protein synthesis and beyond” (Nucleic Acids Research, 2020).
No constants are given. Whether binding was seen depends on the method and setting. Some binding calls cover weakened binding; strength is not graded here.

Sequences of proteins named here, by UniProt entry; tags and fusion partners are left off. A change or cut given only in a name is not applied to a line headed by its entry.
UniProt Q15046: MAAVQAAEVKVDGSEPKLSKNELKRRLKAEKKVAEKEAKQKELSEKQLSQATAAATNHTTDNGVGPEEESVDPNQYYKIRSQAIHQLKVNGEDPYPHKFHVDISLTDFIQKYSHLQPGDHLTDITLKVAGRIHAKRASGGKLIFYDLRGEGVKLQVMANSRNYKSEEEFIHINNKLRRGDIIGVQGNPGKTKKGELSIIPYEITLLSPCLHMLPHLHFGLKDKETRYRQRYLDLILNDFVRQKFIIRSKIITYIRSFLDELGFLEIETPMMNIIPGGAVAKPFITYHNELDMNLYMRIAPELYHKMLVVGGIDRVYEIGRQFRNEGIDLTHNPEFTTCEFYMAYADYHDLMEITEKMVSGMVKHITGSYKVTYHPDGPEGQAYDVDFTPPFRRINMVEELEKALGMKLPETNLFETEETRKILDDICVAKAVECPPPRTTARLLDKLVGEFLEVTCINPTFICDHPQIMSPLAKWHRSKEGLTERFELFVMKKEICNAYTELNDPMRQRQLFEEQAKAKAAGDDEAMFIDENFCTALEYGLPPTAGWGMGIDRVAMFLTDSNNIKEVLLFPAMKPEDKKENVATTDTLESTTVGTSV

How the values were obtained:
[1] = molecular target: T1, MRS-AIMP3 complex (human cytosolic methionyl-tRNA synthetase co-expressed with AIMP3) (human) (UniProt P56192+O43324); test: pull-down; in vitro assembly of the MSC as in a2 but lacking IRS; anti-Flag beads on MRS-Flag; both purified
T1 sequence 1: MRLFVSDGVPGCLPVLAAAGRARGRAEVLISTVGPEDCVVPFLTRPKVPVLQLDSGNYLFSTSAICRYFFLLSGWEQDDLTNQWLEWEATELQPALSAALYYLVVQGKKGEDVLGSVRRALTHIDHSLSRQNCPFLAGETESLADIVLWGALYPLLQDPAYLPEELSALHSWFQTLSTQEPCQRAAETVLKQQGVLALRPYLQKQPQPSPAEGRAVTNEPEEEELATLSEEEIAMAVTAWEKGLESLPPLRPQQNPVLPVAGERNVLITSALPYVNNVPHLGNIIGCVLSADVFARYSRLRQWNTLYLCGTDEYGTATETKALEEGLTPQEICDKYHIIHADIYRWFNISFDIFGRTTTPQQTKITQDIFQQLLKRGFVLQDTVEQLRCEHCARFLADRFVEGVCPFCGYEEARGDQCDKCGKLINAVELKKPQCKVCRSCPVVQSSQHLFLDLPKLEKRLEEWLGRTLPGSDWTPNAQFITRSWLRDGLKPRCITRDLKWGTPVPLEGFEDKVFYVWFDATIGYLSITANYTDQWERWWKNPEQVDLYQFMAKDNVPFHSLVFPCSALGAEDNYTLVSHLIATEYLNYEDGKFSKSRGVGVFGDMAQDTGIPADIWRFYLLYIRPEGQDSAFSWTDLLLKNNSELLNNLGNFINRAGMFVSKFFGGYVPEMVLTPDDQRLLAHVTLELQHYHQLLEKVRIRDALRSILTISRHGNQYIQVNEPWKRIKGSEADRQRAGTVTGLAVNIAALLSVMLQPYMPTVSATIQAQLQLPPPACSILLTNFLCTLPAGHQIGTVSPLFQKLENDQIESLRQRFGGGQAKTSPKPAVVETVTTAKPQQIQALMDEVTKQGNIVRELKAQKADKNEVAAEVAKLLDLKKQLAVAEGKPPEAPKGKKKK
T1 sequence 2: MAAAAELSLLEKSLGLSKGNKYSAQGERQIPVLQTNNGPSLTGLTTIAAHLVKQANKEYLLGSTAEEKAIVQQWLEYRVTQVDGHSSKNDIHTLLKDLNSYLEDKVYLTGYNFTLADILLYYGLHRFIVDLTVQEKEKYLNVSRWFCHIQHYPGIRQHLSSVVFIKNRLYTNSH

[2] = molecular target: T1, MRS-AIMP3 complex (human cytosolic methionyl-tRNA synthetase co-expressed with AIMP3) (human); test: pull-down; in vitro assembly of the MSC as in a2 but lacking hcLRS; anti-Flag beads on MRS-Flag; both purified
[3] = molecular target: T1, MRS-AIMP3 complex (human cytosolic methionyl-tRNA synthetase co-expressed with AIMP3) (human); test: pull-down; in vitro assembly of the MSC: all 11 purified components mixed and incubated 2 h, pulled down with anti-Flag beads (only MRS has the Flag tag), checked by SDS-PAGE and gel filtration; both purified

binding [1]: binds
binding [2]: binds
binding [3]: binds
Substance: KRS-AIMP2 complex (human cytosolic lysyl-tRNA synthetase co-expressed with AIMP2) (from UniProt Q15046 1-597; Q13155 1-320)
